No constants are given. Whether binding was seen depends on the method and setting. In cells and extracts the contact can be indirect. These calls come from enrichment with a bait or labelling near it, and not all partners need be listed. Sequences can lack the tags named with a protein. Values belong to the binder of their own block, whether it stands above or below them.
Biological target: T1, Flag-USP40 (in HLMVECs) (human) (UniProt Q9NVE5)
T1 sequence: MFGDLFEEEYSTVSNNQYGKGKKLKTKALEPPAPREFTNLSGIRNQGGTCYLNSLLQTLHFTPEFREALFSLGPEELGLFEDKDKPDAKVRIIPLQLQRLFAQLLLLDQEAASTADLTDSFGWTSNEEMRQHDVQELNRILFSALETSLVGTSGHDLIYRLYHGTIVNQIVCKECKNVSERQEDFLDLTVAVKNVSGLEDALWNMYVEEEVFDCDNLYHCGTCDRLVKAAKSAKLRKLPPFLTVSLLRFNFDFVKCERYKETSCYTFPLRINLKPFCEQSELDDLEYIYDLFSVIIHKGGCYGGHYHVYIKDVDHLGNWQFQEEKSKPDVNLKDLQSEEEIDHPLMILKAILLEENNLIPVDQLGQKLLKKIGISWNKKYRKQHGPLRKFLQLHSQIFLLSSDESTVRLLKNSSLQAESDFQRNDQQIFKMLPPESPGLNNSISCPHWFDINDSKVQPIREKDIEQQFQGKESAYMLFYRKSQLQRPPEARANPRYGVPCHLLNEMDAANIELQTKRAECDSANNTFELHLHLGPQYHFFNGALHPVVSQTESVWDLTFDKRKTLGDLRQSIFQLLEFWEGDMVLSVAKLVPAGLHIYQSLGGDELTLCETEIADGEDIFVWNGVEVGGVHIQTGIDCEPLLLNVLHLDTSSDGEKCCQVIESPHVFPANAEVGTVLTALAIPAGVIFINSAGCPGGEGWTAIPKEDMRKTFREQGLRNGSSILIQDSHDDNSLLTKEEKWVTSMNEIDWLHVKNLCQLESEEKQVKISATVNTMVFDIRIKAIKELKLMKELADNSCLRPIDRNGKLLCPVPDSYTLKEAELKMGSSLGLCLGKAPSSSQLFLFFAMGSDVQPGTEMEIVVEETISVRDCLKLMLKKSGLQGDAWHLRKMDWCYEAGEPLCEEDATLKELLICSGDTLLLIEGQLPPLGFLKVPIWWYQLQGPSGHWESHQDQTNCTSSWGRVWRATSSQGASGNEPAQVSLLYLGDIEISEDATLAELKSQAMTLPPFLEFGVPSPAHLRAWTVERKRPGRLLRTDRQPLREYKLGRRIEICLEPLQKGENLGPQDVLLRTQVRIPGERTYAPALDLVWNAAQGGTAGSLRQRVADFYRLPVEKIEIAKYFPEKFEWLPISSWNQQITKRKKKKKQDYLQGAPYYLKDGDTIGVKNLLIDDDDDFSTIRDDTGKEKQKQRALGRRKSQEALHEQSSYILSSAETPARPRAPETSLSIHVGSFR
Assay: affinity purification with mass spectrometry; Flag-USP40 immunoprecipitated from transfected HLMVECs with FLAG-M2 affinity gel; eluted under reducing conditions, SDS-PAGE, Coomassie, bands excised, in-gel trypsin digestion, LC-MS

binding: binds
B1: Interferon-induced GTP-binding protein Mx1 (protein, UniProt P20591 1-662)
chain: MVVSEVDIAKADPAAASHPLLLNGDATVAQKNPGSVAENNLCSQYEEKVRPCIDLIDSLRALGVEQDLALPAIAVIGDQSSGKSSVLEALSGVALPRGSGIVTRCPLVLKLKKLVNEDKWRGKVSYQDYEIEISDASEVEKEINKAQNAIAGEGMGISHELITLEISSRDVPDLTLIDLPGITRVAVGNQPADIGYKIKTLIKKYIQRQETISLVVVPSNVDIATTEALSMAQEVDPEGDRTIGILTKPDLVDKGTEDKVVDVVRNLVFHLKKGYMIVKCRGQQEIQDQLSLSEALQREKIFFENHPYFRDLLEEGKATVPCLAEKLTSELITHICKSLPLLENQIKETHQRITEELQKYGVDIPEDENEKMFFLIDKVNAFNQDITALMQGEETVGEEDIRLFTRLRHEFHKWSTIIENNFQEGHKILSRKIQKFENQYRGRELPGFVNYRTFETIVKQQIKALEEPAVDMLHTVTDMVRLAFTDVSIKNFEEFFNLHRTAKSKIEDIRAEQEREGEKLIRLHFQMEQIVYCQDQVYRGALQKVREKELEEEKKKKSWDFGAFQSSSATDSSMEEIFQHLMAYHQEASKRISSHIPLIIQFFMLQTYGQQLQKAMLQLLQDKDTYSWLLKERSDTSDKRKFLKERLARLTQARRRLAQFPG

binding: binds
B2: Isoform 12 of Sorbin and SH3 domain-containing protein 2 (protein, UniProt O94875-12 1-731)
chain: MSVTLTSVKRVQSSPNLLAAGRDSQSPDSAWRSYNDGNQETLNGDATYSSLAAKGFRSVRPNLQDKRSPTQSQITVNGNSGGAVSPMSYYQRPFSPSAYSLPASLNSSIVMQHGTSLDSTDTYPQHAQSLDGTTSSSIPLYRSSEEEKRVTVIKAPHYPGIGPVDESGIPTAIRTTVDRPKDWYKTMFKQIHMVHKPDDDTDMYNTPYTYNAGLYNPPYSAQSHPAAKTQTYRPLSKSHSDNSPNAFKDASSPVPPPHVPPPVPPLRPRDRSSTEKHDWDPPDRKVDTRKFRSEPRSIFEYEPGKSSILQHERPPPLPTTPTPVPREPGRKPLSSSRLGEVTGSPSPPPRSGAPTPSSRAPALSPTRPPKKPLDYVQDHSSGVFNEASLYQSSIDRSLERPMSSASMASDFRKRRKSEPAVGPPRGLGDQSASRTSPGRVDLPGSSTTLTKSFTSSSPSSPSRAKDRESPRSYSSTLTDMGRSAPRERRGTPEKEKLPAKAVYDFKAQTSKELSFKKGDTVYILRKIDQNWYEGEHHGRVGIFPISYVEKLTPPEKAQPARPPPPAQPGEIGEAIAKYNFNADTNVELSLRKGDRVILLKRVDQNWYEGKIPGTNRQGIFPVSYVEVVKKNTKGAEDYPDPPIPHSYSSDRIHSLSSNKPQRPVFTHENIQGGGEPFQALYNYTPRNEDELELRESDVIDVMEKCDDGWFVGTSRRTKFFGTFPGNYVKRL

binding: binds
B3: Interferon-induced GTP-binding protein Mx2 (protein, UniProt P20592 1-715)
chain: MSKAHKPWPYRRRSQFSSRKYLKKEMNSFQQQPPPFGTVPPQMMFPPNWQGAEKDAAFLAKDFNFLTLNNQPPPGNRSQPRAMGPENNLYSQYEQKVRPCIDLIDSLRALGVEQDLALPAIAVIGDQSSGKSSVLEALSGVALPRGSGIVTRCPLVLKLKKQPCEAWAGRISYRNTELELQDPGQVEKEIHKAQNVMAGNGRGISHELISLEITSPEVPDLTIIDLPGITRVAVDNQPRDIGLQIKALIKKYIQRQQTINLVVVPCNVDIATTEALSMAHEVDPEGDRTIGILTKPDLMDRGTEKSVMNVVRNLTYPLKKGYMIVKCRGQQEITNRLSLAEATKKEITFFQTHPYFRVLLEEGSATVPRLAERLTTELIMHIQKSLPLLEGQIRESHQKATEELRRCGADIPSQEADKMFFLIEKIKMFNQDIEKLVEGEEVVRENETRLYNKIREDFKNWVGILATNTQKVKNIIHEEVEKYEKQYRGKELLGFVNYKTFEIIVHQYIQQLVEPALSMLQKAMEIIQQAFINVAKKHFGEFFNLNQTVQSTIEDIKVKHTAKAENMIQLQFRMEQMVFCQDQIYSVVLKKVREEIFNPLGTPSQNMKLNSHFPSNESSVSSFTEIGIHLNAYFLETSKRLANQIPFIIQYFMLRENGDSLQKAMMQILQEKNRYSWLLQEQSETATKRRILKERIYRLTQARHALCQFSSKEIH

binding: binds
B4: Peroxiredoxin-1 (protein, UniProt Q06830 1-199)
chain: MSSGNAKIGHPAPNFKATAVMPDGQFKDISLSDYKGKYVVFFFYPLDFTFVCPTEIIAFSDRAEEFKKLNCQVIGASVDSHFCHLAWVNTPKKQGGLGPMNIPLVSDPKRTIAQDYGVLKADEGISFRGLFIIDDKGILRQITVNDLPVGRSVDETLRLVQAFQFTDKHGEVCPAGWKPGSDTIKPDVQKSKEYFSKQK

binding: binds
B5: Protein phosphatase 1B (protein, UniProt O75688 1-479)
chain: MGAFLDKPKTEKHNAHGAGNGLRYGLSSMQGWRVEMEDAHTAVVGIPHGLEDWSFFAVYDGHAGSRVANYCSTHLLEHITTNEDFRAAGKSGSALELSVENVKNGIRTGFLKIDEYMRNFSDLRNGMDRSGSTAVGVMISPKHIYFINCGDSRAVLYRNGQVCFSTQDHKPCNPREKERIQNAGGSVMIQRVNGSLAVSRALGDYDYKCVDGKGPTEQLVSPEPEVYEILRAEEDEFIILACDGIWDVMSNEELCEYVKSRLEVSDDLENVCNWVVDTCLHKGSRDNMSIVLVCFSNAPKVSDEAVKKDSELDKHLESRVEEIMEKSGEEGMPDLAHVMRILSAENIPNLPPGGGLAGKRNVIEAVYSRLNPHRESDGASDEAEESGSQGKLVEALRQMRINHRGNYRQLLEEMLTSYRLAKVEGEESPAEPAATATSSNSDAGNPVTMQESHTESESGLAELDSSNEDAGTKMSGEKI

binding: binds
B6: Protein-glutamine gamma-glutamyltransferase 2 (protein, UniProt P21980 1-687)
chain: MAEELVLERCDLELETNGRDHHTADLCREKLVVRRGQPFWLTLHFEGRNYEASVDSLTFSVVTGPAPSQEAGTKARFPLRDAVEEGDWTATVVDQQDCTLSLQLTTPANAPIGLYRLSLEASTGYQGSSFVLGHFILLFNAWCPADAVYLDSEEERQEYVLTQQGFIYQGSAKFIKNIPWNFGQFEDGILDICLILLDVNPKFLKNAGRDCSRRSSPVYVGRVVSGMVNCNDDQGVLLGRWDNNYGDGVSPMSWIGSVDILRRWKNHGCQRVKYGQCWVFAAVACTVLRCLGIPTRVVTNYNSAHDQNSNLLIEYFRNEFGEIQGDKSEMIWNFHCWVESWMTRPDLQPGYEGWQALDPTPQEKSEGTYCCGPVPVRAIKEGDLSTKYDAPFVFAEVNADVVDWIQQDDGSVHKSINRSLIVGLKISTKSVGRDEREDITHTYKYPEGSSEEREAFTRANHLNKLAEKEETGMAMRIRVGQSMNMGSDFDVFAHITNNTAEEYVCRLLLCARTVSYNGILGPECGTKYLLNLNLEPFSEKSVPLCILYEKYRDCLTESNLIKVRALLVEPVINSYLLAERDLYLENPEIKIRILGEPKQKRKLVAEVSLQNPLPVALEGCTFTVEGAGLTEEQKTVEIPDPVEAGEEVKVRMDLLPLHMGLHKLVVNFESDKLKAVKGFRNVIIGPA

binding: binds
B7: Thyroid hormone receptor-associated protein 3 (protein, UniProt Q9Y2W1 1-955)
chain: MSKTNKSKSGSRSSRSRSASRSRSRSFSKSRSRSRSLSRSRKRRLSSRSRSRSYSPAHNRERNHPRVYQNRDFRGHNRGYRRPYYFRGRNRGFYPWGQYNRGGYGNYRSNWQNYRQAYSPRRGRSRSRSPKRRSPSPRSRSHSRNSDKSSSDRSRRSSSSRSSSNHSRVESSKRKSAKEKKSSSKDSRPSQAAGDNQGDEAKEQTFSGGTSQDTKASESSKPWPDATYGTGSASRASAVSELSPRERSPALKSPLQSVVVRRRSPRPSPVPKPSPPLSSTSQMGSTLPSGAGYQSGTHQGQFDHGSGSLSPSKKSPVGKSPPSTGSTYGSSQKEESAASGGAAYTKRYLEEQKTENGKDKEQKQTNTDKEKIKEKGSFSDTGLGDGKMKSDSFAPKTDSEKPFRGSQSPKRYKLRDDFEKKMADFHKEEMDDQDKDKAKGRKESEFDDEPKFMSKVIGANKNQEEEKSGKWEGLVYAPPGKEKQRKTEELEEESFPERSKKEDRGKRSEGGHRGFVPEKNFRVTAYKAVQEKSSSPPPRKTSESRDKLGAKGDFPTGKSSFSITREAQVNVRMDSFDEDLARPSGLLAQERKLCRDLVHSNKKEQEFRSIFQHIQSAQSQRSPSELFAQHIVTIVHHVKEHHFGSSGMTLHERFTKYLKRGTEQEAAKNKKSPEIHRRIDISPSTFRKHGLAHDEMKSPREPGYKAEGKYKDDPVDLRLDIERRKKHKERDLKRGKSRESVDSRDSSHSRERSAEKTEKTHKGSKKQKKHRRARDRSRSSSSSSQSSHSYKAEEYTEETEEREESTTGFDKSRLGTKDFVGPSERGGGRARGTFQFRARGRGWGRGNYSGNNNNNSNNDFQKRNREEEWDPEYTPKSKKYYLHDDREGEGSDKWVSRGRGRGAFPRGRGRFMFRKSSTSPKWAHDKFSGEEGEIEDDESGTENREEKDNIQPTTE
